Data from US20200255478A1 (Almirall, S.A., priority 2017, published 2020).
Strings that start with PEPTIDE1 are HELM notation: dots part the residues, brackets hold end groups and non-standard residues.

Legend:
Conditions in all cases: whole synthesis, analytical RP-HPLC
[1] = general procedure: Fmoc solid-phase peptide synthesis; H-Rink amide AM ChemMatrix (0.40 mmol/g); DIPCDI with OxymaPure; in some cases HBTU in DIEA
[2] = general procedure: Fmoc solid-phase peptide synthesis; Fmoc-Rink amide AM PS; DIPCDI with OxymaPure; in some cases HBTU in DIEA
[3] = general procedure: Fmoc solid-phase peptide synthesis; Fmoc-Rink amide AM ChemMatrix resin (0.49 mmol/g); DIPCDI with OxymaPure; in some cases HBTU in DIEA

Question: For “PEPTIDE1{[Stearyl].P.Q.C.D.P.E.T.G.E.C.L.[dP].[am]}|CHEM1{[oXyl]}$PEPTIDE1,CHEM1,4:R3-1:R1|PEPTIDE1,CHEM1,11:R3-1:R2$$$V2.0”, which “final HPLC purity” value [1] is on record?
Answer: The value was 94.5%.

Question: Which “final HPLC purity” value ([2]; trifluoroacetate salt) does the source give for “{[H-Leu-Leu-Cys(&^1)-Asp-Pro-Glu-Thr-Gly-Glu-Cys(&^2)-Leu-Leu-βAla-Arg-Lys-Lys-Arg-Arg-Gln-Arg-Arg-Arg-NH2][&^1(naphthalene)2,3-diyldimethylene&^2]}” here?
Answer: Its value is 96.0%.

Question: For “{[Stearyl-Ala-Leu-Gln-Cys(&^1)-Asp-Pro-Glu-Thr-Gly-Glu-Cys(&^2)-Leu-Pro-NH2][&^1(3,4,5,6-tenafluorobenzene)1,2-diyldimethylene&^2]}”, which “final HPLC purity” value [2] is on record?
Answer: The value was 91.7%.

Question: With “PEPTIDE1{[XStehee1b45].[XbAh1c76e8].[XPhemhca2af7].D.P.E.T.G.E.C.[am]}$PEPTIDE1,PEPTIDE1,3:R3-10:R3$$$V2.0” as the substance, how does the “final HPLC purity” value [2] read?
Answer: Its value is 99.9%.

Question: For “PEPTIDE1{[XStehee1b45].[XbAh1c76e8].L.Q.[XCysLh578bbc].D.P.E.T.G.E.C.L.P.[am]}$PEPTIDE1,PEPTIDE1,5:R3-12:R3$$$V2.0”, which “final HPLC purity” value ([2]; trifluoroacetate salt) is on record?
Answer: The value was 98.0%.

Question: For “PEPTIDE1{L.L.C.D.P.E.T.G.E.C.L.L.[bAla].R.K.K.R.R.Q.R.R.R.[am]}|CHEM1{[BiNap22]}$PEPTIDE1,CHEM1,3:R3-1:R1|PEPTIDE1,CHEM1,10:R3-1:R2$$$V2.0”, which “final HPLC purity” value ([2]; trifluoroacetate salt) is on record?
Answer: Its value is 99.5%.

Question: Which “final HPLC purity” value [2] does the source give for “Acetyl-Trp(indol-2-yl-&^1)-Asp-Glu-Glu-Thr-Gly-Glu-Cys(&^1)-NH2” here?
Answer: Its value is 99.3%.

Question: For “PEPTIDE1{[XStehee1b45].[XbAh1c76e8].[XMeLhe53da8].Q.[XCysLh45a958].D.P.E.T.G.E.C.L.P.[am]}$PEPTIDE1,PEPTIDE1,5:R3-12:R3$$$V2.0”, which “final HPLC purity” value [2] is on record?
Answer: The value was 96.3%.

Question: With “PEPTIDE1{[ac].[XCysLh45a958].D.[XMeAh0ca967].E.T.G.E.C.[am]}$PEPTIDE1,PEPTIDE1,2:R3-9:R3$$$V2.0” as the substance, how does the “final HPLC purity” value [2] read?
Answer: Its value is 99.9%.

Question: Which “final HPLC purity” value [3] does the source give for “PEPTIDE1{[XStehee1b45].[XbAh1c76e8].V.V.[XCysLh45a958].D.P.E.T.G.E.C.V.V.[am]}$PEPTIDE1,PEPTIDE1,5:R3-12:R3$$$V2.0” here?
Answer: The value was 91.7%.

Question: With “PEPTIDE1{L.Q.[XCysLhe4579f].D.A.E.T.G.E.C.L.P.[XbAh1c76e8].R.K.K.R.R.Q.R.R.R.[am]}$PEPTIDE1,PEPTIDE1,3:R3-10:R3$$$V2.0” as the substance, how does the “final HPLC purity” value ([2]; trifluoroacetate salt) read?
Answer: Its value is 99.9%.

Question: Which “final HPLC purity” value [2] does the source give for “{[Stearyl-Ala-Leu-Gln-Cys(&^1)-Asp-Pro-Glu-Thr-Gly-Glu-Cys(&^2)-MeLeu-Pro-NH2][&^1(1,2-phenylenediyl)dimethylene&^2]}” here?
Answer: The value was 99.5%.

Question: Which “final HPLC purity” value ([2]; trifluoroacetate salt) does the source give for “{[H-Leu-Gln-Cys(&^1)-Asp-Ala-Glu-Thr-Gly-Glu-Cys(&^2)-Leu-Pro-βAla-Arg-Lys-Lys-Arg-Arg-Gln-Arg-Arg-Arg-NH2][&^1(1,3-phenylenediyl)dimethylene&^2]}” here?
Answer: Its value is 99.9%.
